Source: doi:10.1101/271270
These are yes or no findings as the source states them, for the method shown. Binding calls can cover weak binding; strength is not graded here.

Protein sequences, listed by entry. Tags and fused reporters are not part of them. Lines headed by an entry give the natural chain unless they say otherwise; changes in a name come on top.
UniProt G5EE53: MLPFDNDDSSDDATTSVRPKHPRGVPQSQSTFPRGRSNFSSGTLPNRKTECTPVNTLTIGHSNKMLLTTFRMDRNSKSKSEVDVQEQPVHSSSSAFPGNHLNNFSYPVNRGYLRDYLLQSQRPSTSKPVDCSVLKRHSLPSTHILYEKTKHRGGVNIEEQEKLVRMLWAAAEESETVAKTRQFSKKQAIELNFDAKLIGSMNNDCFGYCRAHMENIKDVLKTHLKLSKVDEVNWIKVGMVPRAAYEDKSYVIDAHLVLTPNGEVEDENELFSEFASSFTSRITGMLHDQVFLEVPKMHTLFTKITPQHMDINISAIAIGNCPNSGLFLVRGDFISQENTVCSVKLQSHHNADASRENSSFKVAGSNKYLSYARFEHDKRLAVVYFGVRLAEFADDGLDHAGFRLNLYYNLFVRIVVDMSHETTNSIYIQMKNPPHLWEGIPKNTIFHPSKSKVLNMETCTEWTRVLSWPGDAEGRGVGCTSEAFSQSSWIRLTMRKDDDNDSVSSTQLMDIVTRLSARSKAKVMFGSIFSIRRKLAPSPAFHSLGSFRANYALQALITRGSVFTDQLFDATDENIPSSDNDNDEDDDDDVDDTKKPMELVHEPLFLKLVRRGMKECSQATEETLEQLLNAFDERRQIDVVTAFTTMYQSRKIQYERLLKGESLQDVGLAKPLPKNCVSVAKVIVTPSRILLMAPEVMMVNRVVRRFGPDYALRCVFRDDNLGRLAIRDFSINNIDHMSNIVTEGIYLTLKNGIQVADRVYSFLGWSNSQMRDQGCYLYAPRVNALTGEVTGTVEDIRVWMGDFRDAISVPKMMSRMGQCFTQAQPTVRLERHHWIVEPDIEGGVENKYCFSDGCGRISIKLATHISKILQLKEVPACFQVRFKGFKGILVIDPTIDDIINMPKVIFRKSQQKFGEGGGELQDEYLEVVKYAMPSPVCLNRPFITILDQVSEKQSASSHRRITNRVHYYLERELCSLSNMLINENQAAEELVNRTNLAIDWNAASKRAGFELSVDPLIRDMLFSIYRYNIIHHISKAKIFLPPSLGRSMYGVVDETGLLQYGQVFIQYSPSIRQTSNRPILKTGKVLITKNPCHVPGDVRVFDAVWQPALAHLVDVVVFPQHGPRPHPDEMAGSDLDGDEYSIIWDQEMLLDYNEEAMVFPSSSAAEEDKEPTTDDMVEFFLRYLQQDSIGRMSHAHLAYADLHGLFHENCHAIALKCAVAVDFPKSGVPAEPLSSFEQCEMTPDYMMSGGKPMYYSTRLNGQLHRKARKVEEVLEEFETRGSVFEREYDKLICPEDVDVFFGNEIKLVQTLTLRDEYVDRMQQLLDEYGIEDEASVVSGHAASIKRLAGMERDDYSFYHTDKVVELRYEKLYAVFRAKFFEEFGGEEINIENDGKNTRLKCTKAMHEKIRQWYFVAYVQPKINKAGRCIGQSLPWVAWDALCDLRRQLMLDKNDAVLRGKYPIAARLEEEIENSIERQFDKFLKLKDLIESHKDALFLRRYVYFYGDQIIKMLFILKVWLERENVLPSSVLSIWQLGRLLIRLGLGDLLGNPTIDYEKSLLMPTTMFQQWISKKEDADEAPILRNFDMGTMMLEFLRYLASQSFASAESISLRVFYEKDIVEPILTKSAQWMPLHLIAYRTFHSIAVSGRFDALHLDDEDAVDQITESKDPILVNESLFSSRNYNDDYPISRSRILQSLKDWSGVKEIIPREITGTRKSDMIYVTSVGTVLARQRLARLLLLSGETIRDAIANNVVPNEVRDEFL

Molecular target: 3xFLAG∷RRF-3 (C. elegans) (UniProt G5EE53)
Experiment: SEC

GTSF-1 (T06A10.3), endogenous (from UniProt A3QMD6)
binding: binds
